About 20 (0.8%) of roughly 2,400 compounds were called active.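 Rule for the calls: active = AC50 no more than ten times the highest tested concentration, or full inhibition at every dose giving a flat fit (cut at about 30 µM in these data); inconclusive = flat fit with activity between 30% and 70%, or poor-quality invalid fit; inactive = AC50 more than ten times the top tested dose.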 This is one part of the list. Bounds are passed on as bounds.

This experiment in a line: inhibitors of ADP-Glo detection reagents, dose response, artefact control for GSK-3a inhibitor project, biochemical, luminescence, cell-free, homogeneous (AID 463205).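 Note: kinase-free counter-screen against the ADP-Glo detection reagents only; potency is for inhibitors that reduce the luminescence signal.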 The settings on record: 5 uM ADP. On the technique in general: ADP-Glo turns the ADP formed in a reaction into a luminescent signal.
The AC50 is the midpoint of the concentration-response curve, whichever way the signal moves. `Clc1ccc(OCc2nnc(SCc3nnc(-c4ccccc4)o3)o2)c(Cl)c1`: the AC50 is inactive: > 30 µM.

As for `Cc1ccc(C)c(N2CC(C(=O)Nc3nccs3)CC2=O)c1` (configuration not stated), the AC50 was inactive: > 30 µM.

In the case of `S=C(Nc1ccccc1)Nc1ccc2cn[nH]c2c1`, the AC50 is inactive: > 30 µM. As for `Cc1ccnc2ccc(SC(F)(F)F)cc12`, the figure is inactive: > 30 µM; as for `CC(=O)N1CCN(c2ccccc2NC(=O)c2ccc(-c3cccc([N+](=O)[O-])c3)o2)CC1`, inactive: > 30 µM; as for `CC(=O)N=Nc1[nH]c(N)c2ccccc12`, inactive: > 30 µM.

Turning to `CCCCOC(=O)CNc1n[nH]c(=S)[nH]c1=O`, the AC50 was inactive: > 30 µM. As for `Nc1ncnc2c1ncn2[C@@H]1O[C@H](COS(=O)(=O)O)[C@@H](O)[C@H]1O`, the figure is inactive: > 30 µM; as for `CC1=C(C(=O)OC(C)C)C(c2cccs2)n2ncnc2N1` (configuration not stated), inactive: > 30 µM. `Cc1ccc(C(=O)N2NC(c3ccc(F)cc3)C3C(=O)N(c4ccc(C)c(C)c4)C(=O)C32)cc1` (configuration not stated): the AC50 is inactive: > 30 µM. For the compound `COc1cc2c(ccc3cc(OC)c(OC)c(O)c32)cc1O`, the AC50 was inactive: > 30 µM. Next, `N#Cc1cc(-c2cccc(Cl)c2)c[nH]c1=O`: inactive: > 30 µM. Next, `CN(C)Cc1c(C(=O)N/N=C/c2cccnc2)nnn1-c1nonc1N`: inactive: > 30 µM; `O=C(O)c1ccc(Nc2nc(-c3ccccc3)nc3ccccc23)cc1`: inactive: > 30 µM. For the compound `COC(=O)CCCCCCCCC(O)CN(C)C` (configuration not stated), the AC50 is inactive: > 30 µM. As for `c1ccc2c(c1)c1ccccc1n1c(-c3ccc4c(c3)OCO4)nnc21`, the figure is inactive: > 30 µM; as for `COc1ccc(Br)cc1C(=O)Nc1ccc(NC(=O)c2ccco2)cc1`, inactive: > 30 µM; as for `O=C(c1ccc2c3n(nc2c1)-c1ccccc1CO3)N1CCOCC1`, active: 22.5 µM. Next, `COc1ccc(S(=O)(=O)Nc2c(C(=O)O)[nH]c3ccc(OC)cc23)cc1`: inactive: > 30 µM. Take `Cc1ccc(NC(=O)c2cc(-n3cnnc3)ccc2Cl)c(C)c1`: the AC50 is inactive: > 30 µM. Take `COc1ccc(O)c(-c2nc(N)nc(N)n2)c1`: the AC50 is inactive: > 30 µM. `Cc1cc(C(C#N)c2ccccc2)n2ncnc2n1` (configuration not stated): the AC50 is inactive: > 30 µM.

The values above are taken from PubChem BioAssay AID463205 (Broad Institute, 2010).
